# Screening data, single-dose tests

Amino acid sequences for entries named in this document (tags omitted). Residues count along the entry.
UniProt I6X8D2, whole entry: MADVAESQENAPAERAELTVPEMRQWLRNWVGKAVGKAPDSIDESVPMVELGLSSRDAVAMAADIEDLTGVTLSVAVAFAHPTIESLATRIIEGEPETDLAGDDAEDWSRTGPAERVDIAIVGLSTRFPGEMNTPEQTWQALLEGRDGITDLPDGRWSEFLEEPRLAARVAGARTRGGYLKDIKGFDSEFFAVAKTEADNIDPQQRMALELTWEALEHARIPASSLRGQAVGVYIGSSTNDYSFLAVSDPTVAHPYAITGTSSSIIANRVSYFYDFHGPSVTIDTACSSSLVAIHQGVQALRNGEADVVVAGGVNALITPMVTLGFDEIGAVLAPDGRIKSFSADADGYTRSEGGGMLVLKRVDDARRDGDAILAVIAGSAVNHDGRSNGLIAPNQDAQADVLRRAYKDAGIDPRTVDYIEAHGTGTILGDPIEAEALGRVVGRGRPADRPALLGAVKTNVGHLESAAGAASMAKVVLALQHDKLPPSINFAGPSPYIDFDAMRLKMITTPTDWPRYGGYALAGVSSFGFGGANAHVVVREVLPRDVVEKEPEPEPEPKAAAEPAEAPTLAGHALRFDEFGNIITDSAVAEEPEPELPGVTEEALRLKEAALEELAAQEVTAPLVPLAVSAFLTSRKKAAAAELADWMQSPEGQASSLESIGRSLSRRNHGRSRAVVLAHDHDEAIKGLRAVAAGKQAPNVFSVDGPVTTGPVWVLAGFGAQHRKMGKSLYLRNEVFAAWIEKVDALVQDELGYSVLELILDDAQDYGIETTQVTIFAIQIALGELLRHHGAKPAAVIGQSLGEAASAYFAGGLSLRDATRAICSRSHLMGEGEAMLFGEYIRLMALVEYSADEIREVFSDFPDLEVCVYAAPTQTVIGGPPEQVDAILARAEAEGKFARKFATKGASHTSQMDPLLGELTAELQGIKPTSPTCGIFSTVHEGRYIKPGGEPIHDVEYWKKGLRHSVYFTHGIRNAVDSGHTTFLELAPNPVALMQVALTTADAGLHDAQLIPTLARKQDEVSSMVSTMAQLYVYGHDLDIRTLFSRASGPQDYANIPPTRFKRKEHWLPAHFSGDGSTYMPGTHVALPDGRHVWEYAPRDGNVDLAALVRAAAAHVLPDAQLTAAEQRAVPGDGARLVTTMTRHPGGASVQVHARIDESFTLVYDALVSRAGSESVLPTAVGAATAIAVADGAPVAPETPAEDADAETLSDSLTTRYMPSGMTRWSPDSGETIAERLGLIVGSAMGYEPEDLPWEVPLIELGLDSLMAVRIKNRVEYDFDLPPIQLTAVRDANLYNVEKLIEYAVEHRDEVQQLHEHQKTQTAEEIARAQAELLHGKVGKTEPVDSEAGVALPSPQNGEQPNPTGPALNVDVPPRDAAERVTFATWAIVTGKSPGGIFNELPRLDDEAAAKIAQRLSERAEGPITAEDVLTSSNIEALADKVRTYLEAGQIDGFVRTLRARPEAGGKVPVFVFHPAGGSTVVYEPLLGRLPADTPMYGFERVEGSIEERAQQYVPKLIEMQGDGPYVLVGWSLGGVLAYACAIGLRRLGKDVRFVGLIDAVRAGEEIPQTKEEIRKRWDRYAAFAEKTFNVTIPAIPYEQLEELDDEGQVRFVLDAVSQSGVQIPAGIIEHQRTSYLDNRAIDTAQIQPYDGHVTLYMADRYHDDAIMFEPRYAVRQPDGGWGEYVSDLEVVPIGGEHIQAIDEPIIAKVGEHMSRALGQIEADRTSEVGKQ
UniProt Q4DA54, 1-478: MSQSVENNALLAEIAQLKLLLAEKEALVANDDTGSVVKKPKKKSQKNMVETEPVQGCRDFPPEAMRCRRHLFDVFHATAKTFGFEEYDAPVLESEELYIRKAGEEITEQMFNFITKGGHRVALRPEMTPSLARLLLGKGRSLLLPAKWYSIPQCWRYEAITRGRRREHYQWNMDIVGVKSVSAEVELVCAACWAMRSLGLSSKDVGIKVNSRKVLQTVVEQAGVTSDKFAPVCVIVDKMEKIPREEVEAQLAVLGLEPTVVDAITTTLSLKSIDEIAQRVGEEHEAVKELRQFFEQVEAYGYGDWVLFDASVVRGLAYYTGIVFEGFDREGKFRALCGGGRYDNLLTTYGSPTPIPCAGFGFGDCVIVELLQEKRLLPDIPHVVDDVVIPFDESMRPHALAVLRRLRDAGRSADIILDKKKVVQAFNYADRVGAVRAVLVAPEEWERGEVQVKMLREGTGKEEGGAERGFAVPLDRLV
UniProt P9WPC5, whole entry: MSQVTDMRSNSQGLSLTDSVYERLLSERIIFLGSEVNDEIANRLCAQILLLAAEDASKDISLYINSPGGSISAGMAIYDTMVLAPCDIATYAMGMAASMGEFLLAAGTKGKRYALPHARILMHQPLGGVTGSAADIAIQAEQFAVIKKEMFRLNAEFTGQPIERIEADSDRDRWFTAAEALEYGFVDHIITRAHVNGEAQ
UniProt P9WPC3, whole entry partner: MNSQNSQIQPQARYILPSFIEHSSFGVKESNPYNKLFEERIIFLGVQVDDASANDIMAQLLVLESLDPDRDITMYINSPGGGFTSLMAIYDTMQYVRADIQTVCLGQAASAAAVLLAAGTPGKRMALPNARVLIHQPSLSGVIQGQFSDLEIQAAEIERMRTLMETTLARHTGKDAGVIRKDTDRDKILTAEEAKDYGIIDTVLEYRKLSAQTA
UniProt A4I591, 1-473: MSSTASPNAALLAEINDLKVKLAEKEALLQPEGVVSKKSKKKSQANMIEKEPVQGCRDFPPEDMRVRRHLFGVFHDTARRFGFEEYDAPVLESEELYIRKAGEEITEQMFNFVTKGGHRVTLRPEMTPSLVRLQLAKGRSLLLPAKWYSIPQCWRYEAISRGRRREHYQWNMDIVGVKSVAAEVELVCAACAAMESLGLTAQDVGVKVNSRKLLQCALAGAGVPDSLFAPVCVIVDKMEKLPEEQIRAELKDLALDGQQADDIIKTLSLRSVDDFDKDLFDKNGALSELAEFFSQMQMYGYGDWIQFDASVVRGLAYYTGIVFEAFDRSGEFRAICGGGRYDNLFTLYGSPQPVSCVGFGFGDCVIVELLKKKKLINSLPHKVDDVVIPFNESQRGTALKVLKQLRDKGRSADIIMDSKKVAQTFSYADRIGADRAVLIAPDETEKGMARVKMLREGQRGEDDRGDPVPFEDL

Pks13 thioesterase: 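Enzyme assay of the thioesterase domain of polyketide synthase 13; the read-out is not stated. Target: Polyketide synthase Pks13, Mycobacterium tuberculosis (UniProt I6X8D2). Tested at 30 µM. Higher reads as stronger inhibition (inferred from which compounds were picked for retests). Size under these conditions: about 67,000 compounds, about 300 of them at 50% or above in at least one test.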
TcHisRS: 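Enzyme assay of histidyl-tRNA synthetase; the read-out is not stated. Target: Histidine-tRNA ligase, Trypanosoma cruzi CL Brener (UniProt Q4DA54). Compounds at 30 µM. The record gives no direction; compounds that gave an IC50 in retests scored well above the rest, so higher reads as stronger inhibition. About 69,000 compounds were tested under these conditions; 0.045% (about 31) showed 50% or more at least once.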
ClpP1P2: 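Protease assay of ClpP1P2, read by the AMC dye that it sets free. Target: ClpP1P2, Mycobacterium tuberculosis (UniProt P9WPC5 and UniProt P9WPC3). Concentration: 50 µM. Higher reads as stronger inhibition, judged from the few compounds that gave an IC50. Most other retested compounds had strongly negative values. Size under these conditions: about 69,000 compounds, about 10 of them at 50% or above in at least one test.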
Leishmania in macrophages: 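Cell assay of Leishmania donovani living inside macrophages; the read-out is not stated. Tested at 30 µM. Higher reads as stronger inhibition (inferred: compounds with an IC50 in retests scored well above the rest). Of about 69,000 compounds tested this way, about 1,000 (1.5%) reached 50% or more in at least one test.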
LiHisRS: 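Histidine-tRNA ligase, Leishmania infantum (UniProt A4I591). Enzyme assay of histidyl-tRNA synthetase; the read-out is not stated. Tested at 30 µM. Direction is inferred from retests: higher values go with stronger inhibition. The assay is labelled LdHisRS but filed under L. infantum. Size under these conditions: about 69,000 compounds, about 410 of them at 50% or above in at least one test.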

Each number is a percent effect as filed.
The controls that fix the scale are not given in the record; negative values are as filed.
The compounds are a random part of those screened.

{"smiles": "CC(C)CN1CCN(C(=O)c2ccn(C)c(=O)c2)CC1", "Pks13 thioesterase": -19.54, "TcHisRS": 3.944, "ClpP1P2": -14.9, "Leishmania in macrophages": 33.45, "LiHisRS": 11.3}
{"smiles": "Cn1ccnc1-c1ccc(NC[C@H]2CCc3ccccc3O2)nn1", "Pks13 thioesterase": -54.34, "TcHisRS": -1.266, "ClpP1P2": 9.491, "Leishmania in macrophages": 28.74, "LiHisRS": 10.42}
{"smiles": "O=C(NCCn1ccnc1-c1cc2n(n1)CCCNC2)c1ccncc1", "Pks13 thioesterase": -8.502, "TcHisRS": 7.879, "ClpP1P2": -2.434, "Leishmania in macrophages": 24.39, "LiHisRS": 17.78}
{"smiles": "CC(C)(C)NC(=O)CNC(=O)Nc1cc(-c2ccccc2)ns1", "Pks13 thioesterase": 6.658, "TcHisRS": 8.696, "ClpP1P2": -8.479, "Leishmania in macrophages": -7.44, "LiHisRS": 20}
{"smiles": "CC(C(=O)NCc1ccc(N2CCCCCC2)nc1)S(C)(=O)=O", "stereo": "stereo not shown", "Pks13 thioesterase": -1.563, "TcHisRS": 3.779, "ClpP1P2": -15.38, "Leishmania in macrophages": 7.147, "LiHisRS": 11.4}
{"smiles": "CC(C)Cc1noc(CN2CCN(c3nccs3)CC2)n1", "Pks13 thioesterase": -7.09, "TcHisRS": 1.527, "ClpP1P2": 6.921, "Leishmania in macrophages": 14.42, "LiHisRS": 10.96}
{"smiles": "[H][C@@]12CCC(=O)N(CCC3=CCCCC3)[C@]1([H])CCN(C1CCN(C)CC1)C2", "Leishmania in macrophages": 24.73}
{"smiles": "Cc1noc(C)c1CN1CCCC1C(=O)OCc1ccccc1", "stereo": "stereo not shown", "Pks13 thioesterase": -31.83, "TcHisRS": 8.824, "ClpP1P2": 4.053, "Leishmania in macrophages": 16.8, "LiHisRS": 13.33}
{"smiles": "Cl.Cn1ccnc1Sc1ccc(N)cn1", "Leishmania in macrophages": 50.34}
{"smiles": "Cc1cncc(C(=O)NCC2COCc3c(C)nnn3C2)c1", "stereo": "stereo not shown", "Pks13 thioesterase": -4.062, "TcHisRS": 3.96, "ClpP1P2": -19.52, "Leishmania in macrophages": -11.07, "LiHisRS": 15.07}
{"smiles": "Cc1ccc(Cl)cc1-n1nnnc1C1(N2CCCC2)CCCCC1", "Pks13 thioesterase": 3.489, "TcHisRS": -3.865, "ClpP1P2": -22.87, "Leishmania in macrophages": 14.63, "LiHisRS": 4.167}
{"smiles": "COc1ccc(-n2c(COC(C)C)n[nH]c2=O)cc1", "Pks13 thioesterase": -40.63, "TcHisRS": 2.703, "ClpP1P2": -20.11, "Leishmania in macrophages": 6.711, "LiHisRS": 13.68}
{"smiles": "CN(C)CC1CN(C(=O)CCc2ccccc2)Cc2nccn2C1", "stereo": "stereo not shown", "Pks13 thioesterase": -4.612, "TcHisRS": 12.06, "ClpP1P2": 10.93, "LiHisRS": 26.6}
{"smiles": "COc1ccc2c(c1)nc1n2[C@@H](CNC(=O)c2ccccn2)COC1", "Pks13 thioesterase": -40.82, "TcHisRS": 12.87, "ClpP1P2": -6.489, "Leishmania in macrophages": -28.72, "LiHisRS": 22.22}

The first 2 entries again:

- CC(C)CN1CCN(C(=O)c2ccn(C)c(=O)c2)CC1 | Pks13 thioesterase: -19.54%; TcHisRS: 3.944%; ClpP1P2: -14.9%; Leishmania in macrophages: 33.45%; LiHisRS: 11.3%
- Cn1ccnc1-c1ccc(NC[C@H]2CCc3ccccc3O2)nn1 | Pks13 thioesterase: -54.34%; TcHisRS: -1.266%; ClpP1P2: 9.491%; Leishmania in macrophages: 28.74%; LiHisRS: 10.42%

From ChEMBL document CHEMBL3988442, “University of Dundee, Small-Polar-MMV Screening Library” (2021).